Source: patent US20100227853A1, “INHIBITORS OF CYCLIC AMP PHOSPHODIESTERASES” (Trustees of Boston College, priority 2008, published 2010)
Some results were stated once for a whole list of compounds, not compound by compound.

Tested on: PDE4
Assay: in vitro enzyme assay of PDE4 in extracts from rat pulmonary endothelial cells
Assay type: biochemical

## CN(C)c1ccc(/C=C/C=C2/C(=O)NC(=O)N(c3ccccc3)C2=O)cc1 [BC12]
  Ki: 25 to 30 µM
